PubChem BioAssay AID1259254 | NCATS – 2017

Screen: 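Genome-wide screen for genes that prevent DNA re-replication in cancer cells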 (primary screen)
System: human HCT116 colorectal cancer cells
Reagent: single siRNA against human genes
Duration: 3 days
Detection: 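Nuclei stained with Hoechst and imaged; cell-cycle phase assigned by DNA content; G2 share scaled per plate, non-targeting siRNA 0%, GMNN siRNA 100%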
Scale: G2 robust z-score: higher = more G2 cells, more excess DNA replication
Hit rule: 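Active siRNAs have a G2 robust z of 5 or more median absolute deviations over the median, which in these data means about 38% or higher of GMNN control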
The deposit covers about 59,000 reagents; this is a random part of them. Of all reagents, about 1,550 (2.6%) are marked active. 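G2 share is only a proxy for re-replication; each gene was hit by three separate siRNAs, and active genes were retested.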 Unmarked entries are inactive. The numbers tell different reagents against one gene apart. Not all columns of the deposit are shown. Not given: the amount of reagent.

PANK1 (GeneID 53354) #1: G2 robust z-score = -0.677
PANK1 (GeneID 53354) #2: G2 robust z-score = -1.33
PANK1 (GeneID 53354) #3: G2 robust z-score = 1.07
ZNF99 (GeneID 7652) #1: G2 robust z-score = -0.856
ZNF99 (GeneID 7652) #2: G2 robust z-score = -1.43
ZNF99 (GeneID 7652) #3: G2 robust z-score = 0.173
VTA1 (GeneID 51534) #1: G2 robust z-score = 3.22
VTA1 (GeneID 51534) #2: G2 robust z-score = -0.567
VTA1 (GeneID 51534) #3: G2 robust z-score = 0.888
PDYN (GeneID 5173) #1: G2 robust z-score = 3.86
PDYN (GeneID 5173) #2: G2 robust z-score = -0.981
PDYN (GeneID 5173) #3: G2 robust z-score = -0.761
AKAP6 (GeneID 9472) #1: G2 robust z-score = -0.342
AKAP6 (GeneID 9472) #2: G2 robust z-score = 4.42
AKAP6 (GeneID 9472) #3: G2 robust z-score = -0.324

Laid out differently: entries from further up
ZNF99 (GeneID 7652) #1
- G2 robust z-score: -0.856

ZNF99 (GeneID 7652) #2
- G2 robust z-score: -1.43

The results go on.
PRAF2 (GeneID 11230) #1: G2 robust z-score = -0.0954
PRAF2 (GeneID 11230) #2: G2 robust z-score = -0.685
PRAF2 (GeneID 11230) #3: G2 robust z-score = -1.09
MACROD2 (GeneID 140733) #1: G2 robust z-score = -0.167
MACROD2 (GeneID 140733) #2: G2 robust z-score = 0.707
MACROD2 (GeneID 140733) #3: G2 robust z-score = -0.874
RTN2 (GeneID 6253) #1: G2 robust z-score = 2.58
RTN2 (GeneID 6253) #2: G2 robust z-score = -0.163
RTN2 (GeneID 6253) #3: G2 robust z-score = -0.988
RPL10P8 (GeneID 644937) #1: G2 robust z-score = 7.36 (active)
RPL10P8 (GeneID 644937) #2: G2 robust z-score = -0.061
RPL10P8 (GeneID 644937) #3: G2 robust z-score = -0.462
SOX30 (GeneID 11063) #1: G2 robust z-score = 0.15
SOX30 (GeneID 11063) #2: G2 robust z-score = -0.884
SOX30 (GeneID 11063) #3: G2 robust z-score = 0.679
